Measured values published in US20190094246A1 (AMONETA DIAGNOSTICS SAS, priority 2016, published 2019).

Tests used:
RBCs from human subjects = test: LOD and LLOQ of the RBC staining assay; assay type: cell-based; conditions: RBCs 200 000 cells/mL
[1] = general procedure: Fmoc solid-phase peptide synthesis; H-Ala-TentaGel R PHB; Polystyrene AM RAM (Rapp Polymere); HATU/NMM; DIC/OxymaPure; conditions: conjugation step
[2] = Agilent LC-MS system Infinity 1200 with 6230-TOF, C18 column

COCCOCC#CB(C#CCOCCOC)n1c(C)cc(C)c1/C(=C1\N=C(C)C=C1C)c1ccc(C(=O)NCCCn2cc(C3=C(c4cn(C)c5ccccc45)C(=O)NC3=O)c3ccccc32)cc1 [Ex. 9]
Compound concentration to obtain LLOQ (RBCs from human subjects): 0.01 µM

Lys4N-2-(3-CO—CH2—S-2,5-dioxo-pyrrolidinyl)-ethylamido-Bodipyd-Beta-Amyloid (1-42)
final LC-MS purity [1, 2]: 90.2%

Palmitoyl-KKFFVLKG-X—NH2
conjugation yield [1]: 0.2% | final purity (method not given) [1, 2]: 93.7%
